Data taken from PubChem BioAssay AID493014 (National Center for Advancing Translational Sciences (NCATS), 2011).
The list shows a part of the results. Further columns of the screen follow, without active or inactive calls. Compounds called inactive in the main read-out are mostly missing here. Words in brackets tell the shape of the fitted curve; partial curves, single points and poor fits give uncertain potencies.

Assay: qHTS Assay to Find Inhibitors of Chronic Active B-Cell Receptor Signaling
Conditions: ABC-DLBCL IkBa-CBG/CBR reporter, luminescence ratio (green luciferase fused to IkBa over red control in TMD8 lymphoma cells), 4 h
In short: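 Doxycycline induced both beetle luciferases in TMD8 lymphoma cells; IKK-driven degradation limits the IkappaBalpha-fused green signal, while red luminescence normalises for cell number and nonspecific effects. Compounds tested up to 46 uM, 4 hrs.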

[1] = measured here: CBR red luminescence, cell number
[2] = measured here: IkBa-CBG green luminescence

In the case of `COc1ccc(C(O)(c2ccccc2OC)C(CN2CCOCC2)c2ccccc2)cc1` (stereo unspecified), the AC50 [1] is reported as 14.1 µM [falling, single point].
In the case of `CCn1c(SCc2nc3ccccc3c(=O)[nH]2)nc2ccccc2c1=O`, the AC50 [1] is reported as 32.6 µM [rising, single point].
In the case of `CSc1nc(N)nc2c1ncn2CC(=O)N[C@H](C)c1cccc2ccccc12`, the AC50 [1] is reported as 18.4 µM [falling, partial curve, poor fit].
For `O=C(CSc1nc(Nc2ccccc2)nc(N2CCOCC2)n1)Nc1ccc([N+](=O)[O-])cc1`, the AC50 [1] was 16.4 µM [falling, single point].
In the case of `O=C(c1cccc(F)c1)N1CCN(Cc2c[nH]c3ccccc23)CC1`, the AC50 [1] is reported as 1 µM [falling, full curve, poor fit].
For `COc1cc(/C=N/N(c2ccccc2)c2ccccc2)ccc1O`, the AC50 [1] was 11.2 µM [falling, partial curve].
For `O=C1CCC(C(=O)N2CCN(c3ccc(F)cc3)CC2)CN1CC1CCCCC1` (stereo unspecified), the AC50 [1] was 35.5 µM [falling, single point].
In the case of `COc1ccc(C(=O)NCCc2nnc3ccc(SCC(=O)Nc4ccccc4)nn23)cc1`, the AC50 [1] is reported as 35.5 µM [falling, single point].
In the case of `CC(C)(C)c1ccc(S(=O)(=O)NCC(=O)Nc2sc3c(c2C(N)=O)CCCC3)cc1`, the AC50 [1] is reported as 6.51 µM [rising, single point].
In the case of `CSc1n[nH]c(-c2ccc(C(F)(F)F)cc2)n1`, the AC50 [1] is reported as 3.98 µM [rising, full curve, poor fit].
For `COC(=O)CCS(=O)(=O)c1nc(-c2ccccc2)cc(C(F)(F)F)n1`, the AC50 [1] was 5.8 µM [falling, full curve, poor fit] and the AC50 [2] was 5.17 µM [rising, full curve, poor fit].
In the case of `CCOC(=O)N1CCN(S(=O)(=O)c2ccc(F)c(C(=O)Nc3ccc(C(C)C)cc3)c2)CC1`, the AC50 [1] is reported as 32.6 µM [falling, single point].
For `O=C(c1ccc(-c2nc3ccccc3s2)s1)N1CCOCC1`, the AC50 [1] was 12.6 µM [falling, single point].
For `CCOC(=O)CSc1nc(C)cc2c1C(=O)OC2`, the AC50 [1] was 17.8 µM [falling, partial curve, poor fit].
For `COc1cc(C(=O)NC(C)C2CC3CCC2C3)ccc1OC(F)F` (stereo unspecified), the AC50 [1] was 2.59 µM [rising, partial curve, poor fit].
For `O=C(Cn1nc(CNc2ccc(Br)cc2)[n+]2c1CCCCC2)c1ccc([N+](=O)[O-])cc1`, the AC50 [1] was 7.08 µM [rising, full curve, poor fit].
For `CCN(CC)c1ccc(C=NCCNS(=O)(=O)c2ccc(C)cc2)cc1`, the AC50 [1] was 10 µM [falling, partial curve, poor fit].
For `Cn1ccc(C(=O)NC(=S)N2CCSCC2)n1`, the AC50 [1] was 6.31 µM [rising, single point].
With `CCN(CC)Cc1ccccc1CNC(=O)c1cccc(S(=O)(=O)Nc2ccc3c(c2)OCO3)c1` the AC50 [2] was 18.4 µM [falling, partial curve, poor fit].
For `COc1ccc(/C=N/Nc2nncc3ccccc23)cc1`, the AC50 [1] was 29.1 µM [falling, single point].
For `NC(=O)C1CC(=O)N(c2ccc(OCc3ccc(F)cc3)cc2)C1` (stereo unspecified), the AC50 [1] was 6.31 µM [falling, single point].
With `COc1ccc(-n2c(SCC(=O)N3CCCC(C)C3)nnc2-c2cccnc2)cc1` (stereo unspecified) the AC50 [1] was 11.2 µM [rising, partial curve, poor fit].
For `COc1cc2nc(NCC3CCCO3)n3nc(-c4cccnc4)nc3c2cc1OC` (stereo unspecified), the AC50 [1] was 0.0731 µM [rising, full curve, poor fit].
In the case of `CCN(CC)C(=O)Cn1cc(C(=O)C(=O)NCc2ccccn2)c2ccccc21`, the AC50 [1] is reported as 5.01 µM [falling, partial curve].
With `O=C(Cn1nnc2ccccc2c1=O)NCCc1ccc(F)cc1` the AC50 [1] was 0.058 µM [rising, full curve, poor fit].
For `CCCCC(=O)Nc1cccc(-c2cn3ccsc3n2)c1`, the AC50 [1] was 3.16 µM [rising, partial curve].
In the case of `O=C(Nc1nc(-c2ccccn2)cs1)c1ccccc1-n1cnnn1`, the AC50 [1] is reported as 35.5 µM [falling, single point].
In the case of `O=C(CNC(=O)c1ccc(Cl)cc1)OCc1nc2ccccc2s1`, the AC50 [1] is reported as 1.3 µM [falling, full curve, poor fit].
In the case of `COc1ccccc1N=C1NC(=O)/C(=C/c2ccc(N(C)C)cc2)S1`, the AC50 [1] is reported as 1.12 µM [falling, partial curve].
In the case of `c1ccc(-c2cnc(CSc3nnc4ccccn34)o2)cc1`, the AC50 [1] is reported as 18.4 µM [falling, single point].
In the case of `Cc1ccc(S(=O)(=O)Cc2ccc(C(=O)NCCCN3CCN(C)CC3)o2)cc1`, the AC50 [1] is reported as 23.1 µM [rising, single point].
For `CCCn1c2ccccc2c2cnn(CC(=O)NCCOC)c(=O)c21`, the AC50 [1] was 3.55 µM [rising, single point].
With `COc1ccc(-c2cc(C(=O)NC(Cc3cc4ccccc4[nH]3)C(=O)O)c(C)o2)cc1OC` (stereo unspecified) the AC50 [2] was 2.82 µM [rising, full curve].
For `Cc1nc(/N=C(\N)NC(=O)c2ccccc2)nc2ccccc12`, the AC50 [1] was 0.0517 µM [falling, full curve].
For `N#CCC(=O)N/N=C/c1ccc(OCC(=O)Nc2ccc(F)cc2)cc1`, the AC50 [1] was 11.2 µM [rising, partial curve, poor fit].
For `CCCCn1nc(C(=O)Nc2cccc(C(=O)NC3CC3)c2)c2ccccc2c1=O`, the AC50 [1] was 29.1 µM [falling, single point].
With `O=C(NCc1cccs1)c1cc2ccccc2o1` the AC50 [1] was 10 µM [falling, partial curve].
For `CC(O)CNc1nc2c(c(=O)n(C)c(=O)n2C)n1Cc1cccc(Br)c1` (stereo unspecified), the AC50 [1] was 35.5 µM [falling, single point].
For `CCCN(CCC)CCNC(=O)C1CCN(Cc2nc(-c3ccc(Cl)cc3)oc2C)CC1`, the AC50 [1] was 11.2 µM [falling, partial curve, poor fit].
With `CCOc1ccc(N=NC2C(=O)N(C(N)=S)N=C2C)cc1` (stereo unspecified) the AC50 [1] was 22.4 µM [rising, single point].
For `CCNS(=O)(=O)c1ccc(NC(=O)c2ccccc2OCC)cc1`, the AC50 [1] was 1.64 µM [rising, partial curve, poor fit].
In the case of `CC(=O)Nc1cccc(C(=O)N/N=C/c2cccc(C)n2)c1`, the AC50 [1] is reported as 35.5 µM [falling, single point].
For `COc1ccccc1NS(=O)(=O)c1cccc(C(=O)NCC(c2ccco2)N2CCCC2)c1` (stereo unspecified), the AC50 [1] was 5.8 µM [falling, single point].
In the case of `COc1ccc(-c2nc(SCc3ccccc3)n(C(=O)c3ccco3)n2)cc1`, the AC50 [1] is reported as 8.2 µM [rising, partial curve, poor fit].
In the case of `COc1cc(/C=N/Nc2nc(-c3ccc(S(=O)(=O)N(C)C)cc3)cs2)ccc1O`, the AC50 [1] is reported as 8.91 µM [falling, partial curve, poor fit].
For `Cc1ccc(C)c(NS(=O)(=O)c2cc(C(=O)N3CCc4ccccc4C3)ccc2Cl)c1`, the AC50 [1] was 11.2 µM [falling, single point].
For `NC(=O)CCC(NC(=S)Nc1ccccc1)C(=O)O` (stereo unspecified), the AC50 [1] was 14.1 µM [rising, partial curve, poor fit].
For `CCC(=O)c1ccc(OCC(=O)Nc2nc(C)cs2)cc1`, the AC50 [1] was 13 µM [falling, single point].
With `COc1ccc(C(=S)N2CCOCC2)cc1OS(=O)(=O)c1ccccc1[N+](=O)[O-]` the AC50 [1] was 29.1 µM [rising, partial curve, poor fit].
In the case of `O=C(NC1CCCCC1)N1CCN(c2ccccc2)CC1`, the AC50 [1] is reported as 23.1 µM [falling, partial curve].
For `O=C1NC(c2ccccc2)=C(c2nc3ccccc3s2)C(c2ccc(F)cc2)N1` (stereo unspecified), the AC50 [1] was 11.2 µM [falling, partial curve].
For `CCSc1nc2nn(-c3ccccc3)c(=O)c-2c2n1CCCCC2`, the AC50 [1] was 0.092 µM [falling, full curve, poor fit].
With `CC(=O)c1sc(NC(=O)C2CCN(C(=O)c3ccc(F)cc3)CC2)nc1-c1ccccc1` the AC50 [1] was 1.3 µM [falling, partial curve, poor fit].
With `CCn1c2ccccc2c2cc(NC(=O)CSc3nnc(-c4ccccc4)o3)ccc21` the AC50 [1] was 29.1 µM [rising, single point].
With `O=C(CCSc1nnc(-c2ccncc2)o1)Nc1ccccc1` the AC50 [1] was 2.59 µM [falling, partial curve, poor fit].
With `CCn1c(=O)c(C(=O)NCc2ccccn2)c(O)c2ccccc21` the AC50 [1] was 8.91 µM [falling, partial curve].
In the case of `CC(NC(=O)CCNS(=O)(=O)c1ccccc1)c1ccccc1` (stereo unspecified), the AC50 [1] is reported as 35.5 µM [falling, single point].
With `COc1ccccc1/C=C/C(=O)OC(C)CN1CCOCC1` (stereo unspecified) the AC50 [1] was 0.631 µM [rising, full curve, poor fit].
For `CCCCOc1ccc2c(C)cc(=O)oc2c1OCCCC`, the AC50 [1] was 18.4 µM [rising, partial curve] and the AC50 [2] was 23.1 µM [falling, partial curve, poor fit].
With `Cc1[nH]c2ccccc2c1C(=O)CSc1n[nH]c(N)n1` the AC50 [1] was 35.5 µM [falling, single point].
In the case of `Cc1cn(-c2cc(C(=O)Nc3ccc(C)c(NC(=O)C(=O)c4c[nH]c5ccccc45)c3)cc(C(F)(F)F)c2)cn1`, the AC50 [1] is reported as 1.78 µM [falling, full curve, poor fit].
In the case of `Cc1sc2nc(SCc3ccc(C(=O)O)cc3)n(Cc3ccco3)c(=O)c2c1C`, the AC50 [1] is reported as 6.31 µM [falling, full curve, poor fit].
With `CC1=NN(C(N)=S)C(=O)C1N=Nc1ccc([N+](=O)[O-])cc1` (stereo unspecified) the AC50 [1] was 1.26 µM [falling, partial curve] and the AC50 [2] was 1 µM [falling, full curve, poor fit].
